Among the data in PMC7356810 are binding values, retold here.

Chains of the proteins cited; added tags and fusions are not shown. Lines headed by an entry give the natural chain unless they say otherwise; changes in a name come on top. A line that says so, or that is headed by a name, gives the form on record, which may keep a tag or linker. Residues count along the entry.
UniProt Q92615: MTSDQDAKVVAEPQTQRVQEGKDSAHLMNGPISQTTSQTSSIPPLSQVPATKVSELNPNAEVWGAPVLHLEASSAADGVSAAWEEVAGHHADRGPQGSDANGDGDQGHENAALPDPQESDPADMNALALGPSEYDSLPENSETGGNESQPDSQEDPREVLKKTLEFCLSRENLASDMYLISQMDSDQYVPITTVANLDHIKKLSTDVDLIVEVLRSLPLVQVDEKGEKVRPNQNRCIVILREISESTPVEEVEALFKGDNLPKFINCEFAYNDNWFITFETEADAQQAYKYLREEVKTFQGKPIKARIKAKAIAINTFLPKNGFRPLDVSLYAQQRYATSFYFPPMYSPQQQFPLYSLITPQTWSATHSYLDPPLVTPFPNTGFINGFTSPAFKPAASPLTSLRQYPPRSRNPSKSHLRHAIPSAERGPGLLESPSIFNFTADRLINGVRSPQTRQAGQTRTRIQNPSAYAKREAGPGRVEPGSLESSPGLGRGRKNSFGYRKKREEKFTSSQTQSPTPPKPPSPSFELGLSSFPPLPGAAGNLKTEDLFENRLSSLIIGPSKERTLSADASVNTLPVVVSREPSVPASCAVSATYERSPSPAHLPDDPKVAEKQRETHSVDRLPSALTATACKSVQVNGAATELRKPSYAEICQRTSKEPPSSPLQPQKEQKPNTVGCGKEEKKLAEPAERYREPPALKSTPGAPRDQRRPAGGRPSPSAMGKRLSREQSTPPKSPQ
HA-LARP4B W(63)→K (overexpressed in HEK293 cells) (Q92615, form named): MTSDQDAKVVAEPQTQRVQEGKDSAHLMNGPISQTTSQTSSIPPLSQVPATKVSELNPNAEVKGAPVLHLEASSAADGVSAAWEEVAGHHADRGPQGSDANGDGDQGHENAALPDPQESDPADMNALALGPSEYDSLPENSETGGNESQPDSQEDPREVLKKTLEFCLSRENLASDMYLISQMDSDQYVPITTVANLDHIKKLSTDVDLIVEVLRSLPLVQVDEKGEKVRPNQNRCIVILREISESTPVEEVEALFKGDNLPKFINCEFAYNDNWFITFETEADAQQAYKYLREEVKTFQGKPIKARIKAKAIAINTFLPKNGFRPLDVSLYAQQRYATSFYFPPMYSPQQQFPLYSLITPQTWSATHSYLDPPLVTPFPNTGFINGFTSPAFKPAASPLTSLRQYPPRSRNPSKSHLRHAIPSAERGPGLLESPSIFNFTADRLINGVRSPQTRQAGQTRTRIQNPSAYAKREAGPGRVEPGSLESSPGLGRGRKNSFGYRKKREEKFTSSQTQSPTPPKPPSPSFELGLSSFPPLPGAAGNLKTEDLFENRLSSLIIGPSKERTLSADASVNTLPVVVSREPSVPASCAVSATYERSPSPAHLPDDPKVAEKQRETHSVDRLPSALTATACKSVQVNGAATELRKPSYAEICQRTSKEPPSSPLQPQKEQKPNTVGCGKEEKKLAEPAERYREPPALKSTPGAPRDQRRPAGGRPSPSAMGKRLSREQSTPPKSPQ
UniProt P11940: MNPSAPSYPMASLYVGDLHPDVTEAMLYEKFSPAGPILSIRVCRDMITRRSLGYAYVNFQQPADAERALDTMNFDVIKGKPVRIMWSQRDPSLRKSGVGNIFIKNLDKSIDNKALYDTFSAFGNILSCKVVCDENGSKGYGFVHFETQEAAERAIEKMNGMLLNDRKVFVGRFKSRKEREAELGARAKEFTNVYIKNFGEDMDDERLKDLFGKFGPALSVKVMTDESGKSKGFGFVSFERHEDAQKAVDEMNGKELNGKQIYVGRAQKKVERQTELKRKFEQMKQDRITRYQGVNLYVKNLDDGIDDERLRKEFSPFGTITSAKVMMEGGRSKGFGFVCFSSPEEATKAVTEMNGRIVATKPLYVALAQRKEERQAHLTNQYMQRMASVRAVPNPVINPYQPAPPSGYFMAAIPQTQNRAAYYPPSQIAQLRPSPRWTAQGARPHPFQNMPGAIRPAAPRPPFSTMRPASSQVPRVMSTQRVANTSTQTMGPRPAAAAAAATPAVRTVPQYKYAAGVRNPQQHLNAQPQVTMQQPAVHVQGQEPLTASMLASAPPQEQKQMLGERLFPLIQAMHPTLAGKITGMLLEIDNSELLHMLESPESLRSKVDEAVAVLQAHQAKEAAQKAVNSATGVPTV
MLLE domain (amino acids 543-621) of human PABPC1: residues 543-621 of P11940

The target in experiment [1] is HA-LARP4B (in vitro translated) (human) (UniProt Q92615). Briefly: co-IP; HA-PABPC1 co-translated in vitro with HA-LARP4B or the W63K mutant, [35S]-labelled; immunoprecipitated with anti-LARP4B antibody on protein-G-Sepharose (pre-immune serum as control); autoradiography.
The target in experiment [2] is HA-LARP4B (overexpressed in HEK293 cells) (human) (UniProt Q92615). Briefly: co-IP; extracts of HEK293 cells co-transfected with HA-LARP4B or the W63K mutant and PABPC1; immunoprecipitated with anti-LARP4B antibody (pre-immune serum as control); Western blotting. Background: In western blotting, separated proteins are transferred to a membrane and probed.
For experiment [3], the target named is HA-LARP4B W(63)→K (overexpressed in HEK293 cells) (human) (UniProt Q92615). The experiment is described as above.
Experiment [4] addresses MLLE domain (amino acids 543-621) of human PABPC1 (human) (UniProt P11940). Briefly: crystal structure; MLLE domain co-crystallised with LARP4B-PAM2w peptide in a 1:1.5 molar ratio; hanging drop; 100 mM NaCl, 2 mM beta-mercaptoethanol, 10 mM HEPES pH 7.5; reservoir 1.5 M magnesium sulfate, 0.1 M Bis-Tris pH 6.5; 1.7 Å; both purified.

No constants are given. Whether binding was seen depends on the method and setting. For some of these results: Binding seen in cells or lysates may run through a third protein. Some binding calls cover weakened binding; strength is not graded here.

“HA-PABPC1 (in vitro translated) (from UniProt P11940 1-636)”: the binding entry in experiment [1] is listed as “binds”.
“PABPC1 (co-transfected in HEK293 cells) (from UniProt P11940 1-636)”: the binding entry in experiment [2] and in experiment [3] was “binds” throughout.
In the case of LNPNAEVWGAPVLHL (peptide, UniProt Q92615 56-70) [LARP4B-PAM2w peptide (residues 56 to 70)], the binding entry in experiment [4] was “binds”.
